US11535627B2, “Pyrimidine derivative compound, pharmaceutically acceptable salt thereof, preparation process thereof, and pharmaceutical composition using the same” (Spark Biopharma, Inc., priority 2016, dated 2022)
At least one compound was matched to its structure with a doubt left.

Experiments:
[1] = tested on: HeLa human cervical cancer cells; assay: Western blot analysis of LC3 and p62 (autophagy) in HeLa cells; assay type: cell-based; conditions: for p62 level: 6 h, 200 nM Rap, 10 nM Baf, 20 μM 21f, compared with DMSO
Procedure: HEK293T cell was cultured in Dulbecco modified eagle medium (DMEM) with 10% (v/v) fetal bovine serum (FBS) and 1% (v/v) antibiotic-antimycotic solution. HeLa, DU145, and Ca Ski cells were cultured in RPMI 1640 medium with 10% (v/v) FBS and 1% (v/v) antibiotic-antimycotic solution. The cells were cultured in 100-mm culture dish in an incubator at 37° C., in 5% CO2.
Cells were lysed with Radio-ImmunoPrecipitation Assay (RIPA) buffer (50 mM Tris, pH 7.8, 150 mM NaCl, 0.5% deoxycholate, 1% IGEPAL CA-630, protease inhibitor cocktail, and phosphatase inhibitors). Protein was obtained by transferring supernatant after centrifugation at 15000 rpm for 20 min. Protein concentration was measured with Micro BCA™ protein assay kit. Overall protein sampling procedure was done at 4° C. Prepared protein samples were analyzed with SDS-PAGE. Protein after electrophoresis was transferred into nitrocellulose membrane. Membrane was blocked with TBST mixed with 2% BSA over at least 1 h at r.t. Primary antibodies were incubated overnight at 4° C. The treatment concentration was as follows: Anti-LC3B (ab51520); 1:1000, anti-S6K1 (ab32359); 1:1000, anti-phospho-T389 S6K1 (ab2571); 1:800, anti-p62 (CST 5114); 1:1000, anti-glyceraldehyde-3-phosphate dehydrogenase (GAPDH) (CST 2118); 1:1000, anti-phospho-S65 4E-BP1 (CST 9451); 1:1000, anti-phospho-S757 ULK1 (CST 6888); 1:800, anti-phospho-S473 Akt (CST 4058); 1:1000, anti-phospho-T172 AMPKα (CST 2531). After washing with TBST, HRP-labeled anti-rabbit IgG secondary antibody was treated at room temperature for 1 h. After washing with TBST, developing by Amersham ECL prime solution was done. Chemiluminescent signal was imaged by ChemiDoc™ MP imaging system.

HeLa cells = assay: mCherry-GFP-LC3 puncta imaging; assay type: cell-based, human; conditions: 6 h, 200 nM Rap, 10 nM Baf, 20 μM 21f
Procedure: HeLa cells were seeded in chambered coverglass from Nunc and incubated for 24 h. mCherry-GFP-LC3 plasmid was transfected to the cells using Lipofectamine™ 2000 solution. Transfection was proceeded according to manufacturer's protocol.
DeltaVision Elite imaging system was used for the imaging of mCherry-GFP-LC3 transfected HeLa cell. For live-cell imaging, chamber was maintained at 37° C. and in 5% CO2. […] The wavelength range of the used filters is as follows: mCherry (Excitation: 575/25 nm, Emission: 625/45 nm); GFP (Excitation: 475/28 nm, Emission: 525/48 nm). Images were processed and analyzed with SoftWorks deconvolution software.

For `CO[C@H]1C[C@@H]2CC[C@@H](C)[C@@](O)(O2)C(=O)C(=O)N2CCCC[C@H]2C(=O)O[C@H]([C@H](C)C[C@@H]2CC[C@@H](O)[C@H](OC)C2)CC(=O)[C@H](C)/C=C(\C)[C@@H](O)[C@@H](OC)C(=O)[C@H](C)C[C@H](C)/C=C/C=C/C=C/1C` [rapamycin], the p62 level [1] was “reducing p62 level”, the p62 level ([1]; listed as Rap) was “stimulated the degradation of p62” and the “cellular level of LC3 II” value ([1]; in the presence of Leu) was “increased the cellular level of LC3 II”. The “mCherry and GFP fluorescence (mCherry-GFP-LC3)” value (HeLa cells) was “red fluorescence of mCherry fluorescence alone remained”.
